In patent US20090233858A1:
Results are given in words; binding and its absence hold for the method and conditions named. Some entries that bind do so weakly or less than the wild type.

Protein sequences, listed by entry. Tags and fused reporters are not part of them. Lines headed by an entry give the natural chain unless they say otherwise; changes in a name come on top.
UniProt P67774: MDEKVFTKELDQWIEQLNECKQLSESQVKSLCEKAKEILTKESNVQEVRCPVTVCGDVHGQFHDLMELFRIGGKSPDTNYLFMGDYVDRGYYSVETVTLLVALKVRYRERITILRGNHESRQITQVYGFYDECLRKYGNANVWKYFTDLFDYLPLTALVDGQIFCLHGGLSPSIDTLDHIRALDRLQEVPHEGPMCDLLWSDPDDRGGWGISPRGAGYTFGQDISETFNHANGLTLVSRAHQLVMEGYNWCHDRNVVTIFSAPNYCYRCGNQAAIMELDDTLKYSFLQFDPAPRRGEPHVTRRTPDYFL

Biological target: T1, PP2A regulatory subunit Bα (residues 1-447) (human) (UniProt P63151)
T1 sequence: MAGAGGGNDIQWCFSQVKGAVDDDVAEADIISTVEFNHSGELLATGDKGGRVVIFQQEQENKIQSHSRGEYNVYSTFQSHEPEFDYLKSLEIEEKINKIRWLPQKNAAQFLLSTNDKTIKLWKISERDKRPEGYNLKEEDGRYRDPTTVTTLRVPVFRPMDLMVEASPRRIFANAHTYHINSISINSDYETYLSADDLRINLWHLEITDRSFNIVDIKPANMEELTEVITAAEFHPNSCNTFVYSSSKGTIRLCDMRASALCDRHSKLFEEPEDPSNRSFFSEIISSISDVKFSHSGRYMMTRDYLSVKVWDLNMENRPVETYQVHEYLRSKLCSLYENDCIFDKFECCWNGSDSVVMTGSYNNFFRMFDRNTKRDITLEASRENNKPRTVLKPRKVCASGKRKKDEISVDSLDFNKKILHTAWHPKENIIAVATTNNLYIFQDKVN
Experiment: in vitro holoenzyme formation (Aα, Bα, truncated C), data not shown

binding: binds
Substance: carboxy-terminally truncated C subunit (from UniProt P67774 1-295) (enzyme)
